Source: patent US20090124675A1, “INHIBITORS OF ANTI-APOPTOTIC PROTEINS” (Burnham Institute for Medical Research, priority 2007, published 2009)
At least one compound was matched to its structure with a doubt left.

System: B6BCL-2 transgenic mouse
Assay: In vivo test in the B6BCL-2 transgenic mouse
Conditions: rank order
Procedure: Some compounds of the invention were also tested in vivo in the B6BCL-2 transgenic mouse. […] Gossypol is described, e.g., in U.S. Pat. No. 7,186,708. Apogossypol is described, e.g., in Meyers A. I.; Willemsen J. J., Tetrahedron Letters, vol. 37, No. 6, February, […], pp. 791-792.

Compound: Cc1cc2c(C(C)C)c(O)c(O)c(C=O)c2c(O)c1-c1c(C)cc2c(C(C)C)c(O)c(O)c(C=O)c2c1O [gossypol]
- Order of potency in terms of in vivo efficacy: compound 11>compound 5>compound 3=apogossypol=gossypol
